# Positions count from the first letter of the chain named. Some of the results follow. For some assays here: At the low end of the ranking the order means little. For some assays here: The source does not settle which construct or isoform was used.
# How the values were obtained:
# Conditions in all cases: yeast three-hybrid, YBZ-1, SC-Leu-His + 0.5 mM 3-AT, 4 days
# [1] = molecular target: T1, PUM1 PUF domain R1-QFR R2-VFQ R7-NPG S863Q + R864F + Q867R + N899V + Y900F + S1079N + N1080P + E1083G (UniProt Q14671)
# T1 sequence: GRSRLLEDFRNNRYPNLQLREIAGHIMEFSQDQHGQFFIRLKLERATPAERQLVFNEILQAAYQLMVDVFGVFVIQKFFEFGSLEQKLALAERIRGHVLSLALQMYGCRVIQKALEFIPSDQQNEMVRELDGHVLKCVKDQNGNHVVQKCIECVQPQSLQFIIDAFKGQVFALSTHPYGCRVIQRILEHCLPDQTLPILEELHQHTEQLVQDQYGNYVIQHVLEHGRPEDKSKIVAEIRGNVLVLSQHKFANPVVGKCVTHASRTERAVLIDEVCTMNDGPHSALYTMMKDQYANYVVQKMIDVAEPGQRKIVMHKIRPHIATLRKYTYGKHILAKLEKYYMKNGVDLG
# [2] = molecular target: T2, PUM1 PUF domain R3-THE R4-TFR R7-NPG C935T + R936H + Q939E + N971T + H972F + Q975R + S1079N + N1080P + E1083G (Homo sapiens) (UniProt Q14671)
# T2 sequence: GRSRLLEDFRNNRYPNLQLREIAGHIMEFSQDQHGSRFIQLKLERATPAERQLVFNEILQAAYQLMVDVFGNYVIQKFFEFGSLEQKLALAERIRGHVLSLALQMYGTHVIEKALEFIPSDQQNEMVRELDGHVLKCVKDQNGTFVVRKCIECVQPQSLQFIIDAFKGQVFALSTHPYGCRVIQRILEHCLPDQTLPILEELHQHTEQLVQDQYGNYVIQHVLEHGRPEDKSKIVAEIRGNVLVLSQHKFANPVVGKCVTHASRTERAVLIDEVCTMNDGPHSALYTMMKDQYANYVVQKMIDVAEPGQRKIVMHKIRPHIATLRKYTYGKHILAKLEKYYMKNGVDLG
# [3] = molecular target: T3, PUM1 PUF domain R5-PHQ R6-SWD C1007P + R1008H + N1043S + Y1044W + Q1047D (UniProt Q14671)
# T3 sequence: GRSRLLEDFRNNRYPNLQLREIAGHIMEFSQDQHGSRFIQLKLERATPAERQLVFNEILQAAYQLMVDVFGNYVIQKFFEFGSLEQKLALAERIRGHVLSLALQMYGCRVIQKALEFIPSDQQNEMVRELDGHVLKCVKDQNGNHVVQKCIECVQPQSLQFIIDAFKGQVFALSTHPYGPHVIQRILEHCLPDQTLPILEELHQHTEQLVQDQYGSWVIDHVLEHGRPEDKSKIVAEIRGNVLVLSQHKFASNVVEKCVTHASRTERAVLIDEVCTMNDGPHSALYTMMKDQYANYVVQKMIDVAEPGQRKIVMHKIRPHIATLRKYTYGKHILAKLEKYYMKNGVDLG
# [4] = molecular target: T4, PUM1 PUF domain R6-SWD R7-NPG N1043S + Y1044W + Q1047D + S1079N + N1080P + E1083G (UniProt Q14671)
# T4 sequence: T3 sequence with P180C, H181R, S252N, N253P, E256G
# [5] = molecular target: T5, PUM1 PUF domain R3-THE R4-TFR R7-NPG C935T + R936H + Q939E + N971T + H972F + Q975R + S1079N + N1080P + E1083G (UniProt Q14671)
# T5 sequence: T2 sequence
sequence,measurement,setting,value
GGCUAGAACUAGUGGAUCCCCCGGCGCCCGGCGGCUCGAGCCCGGGUAAGUUGUAAUCGUCUGCAUGCCGCCGGGCGCCAUGCCUGCAGGUCGACUCUAGAAAACAUG,binding signal (log2 enrichment (interaction score)),[1],-6.34
same,binding signal (log2 enrichment (interaction score)),[2],< -1.22
same,binding signal (log2 enrichment (interaction score)),[3],-7.98
GGCUAGAACUAGUGGAUCCCCCGGCGCCCGGCGGCUCGAGCCCGGGUAAGGUUUGGAAGUCUGCAUGCCGCCGGGCGCCAUGCCUGCAGGUCGACUCUAGAAAACAUG,binding signal (log2 enrichment (interaction score)),[1],-5.28
same,binding signal (log2 enrichment (interaction score)),[2],-1.87
GGCUAGAACUAGUGGAUCCCCCGGCGCCCGGCGGCUCGAGCCCGGGUAAGUUUUAGACGUCUGCAUGCCGCCGGGCGCCAUGCCUGCAGGUCGACUCUAGAAAACAUG,binding signal (log2 enrichment (interaction score)),[1],-2.81
same,binding signal (log2 enrichment (interaction score)),[2],-1.48
GGCUAGAACUAGUGGAUCCCCCGGCGCCCGGCGGCUCGAGCCCGGGUAAGUUAAAAUUGUCUGCAUGCCGCCGGGCGCCAUGCCUGCAGGUCGACUCUAGAAAACAUG,binding signal (log2 enrichment (interaction score)),[1],-5.75
same,binding signal (log2 enrichment (interaction score)),[2],-1.36
GGCUAGAACUAGUGGAUCCCCCGGCGCCCGGCGGCUCGAGCCCGGGUAAGUGUAACACGUCUGCAUGCCGCCGGGCGCCAUGCCUGCAGGUCGACUCUAGAAAACAUG,binding signal (log2 enrichment (interaction score)),[1],< -6.6
same,binding signal (log2 enrichment (interaction score)),[2],-1.1
GGCUAGAACUAGUGGAUCCCCCGGCGCCCGGCGGCUCGAGCCCGGGUAAGAAAACAUAGUCUGCAUGCCGCCGGGCGCCAUGCCUGCAGGUCGACUCUAGAAAACAUG,binding signal (log2 enrichment (interaction score)),[1],-5.44
same,binding signal (log2 enrichment (interaction score)),[2],< -1.7
same,binding signal (log2 enrichment (interaction score)),[3],-7.34
GGCUAGAACUAGUGGAUCCCCCGGCGCCCGGCGGCUCGAGCCCGGGUAAGGUUUCCCCGUCUGCAUGCCGCCGGGCGCCAUGCCUGCAGGUCGACUCUAGAAAACAUG,binding signal (log2 enrichment (interaction score)),[1],-2.57
same,binding signal (log2 enrichment (interaction score)),[2],-1.81
GGCUAGAACUAGUGGAUCCCCCGGCGCCCGGCGGCUCGAGCCCGGGUAAGUGGAAGGAGUCUGCAUGCCGCCGGGCGCCAUGCCUGCAGGUCGACUCUAGAAAACAUG,binding signal (log2 enrichment (interaction score)),[1],-5.69
same,binding signal (log2 enrichment (interaction score)),[2],-1.81
same,binding signal (log2 enrichment (interaction score)),[3],< -7.4
GGCUAGAACUAGUGGAUCCCCCGGCGCCCGGCGGCUCGAGCCCGGGUAAGUUGCAUGCGUCUGCAUGCCGCCGGGCGCCAUGCCUGCAGGUCGACUCUAGAAAACAUG,binding signal (log2 enrichment (interaction score)),[1],< -6.97
same,binding signal (log2 enrichment (interaction score)),[2],< -1.32
GGCUAGAACUAGUGGAUCCCCCGGCGCCCGGCGGCUCGAGCCCGGGUAAGGUCAGGAAGUCUGCAUGCCGCCGGGCGCCAUGCCUGCAGGUCGACUCUAGAAAACAUG,binding signal (log2 enrichment (interaction score)),[1],-6.11
same,binding signal (log2 enrichment (interaction score)),[2],< -1.6
GGCUAGAACUAGUGGAUCCCCCGGCGCCCGGCGGCUCGAGCCCGGGUAAGUUGCACACGUCUGCAUGCCGCCGGGCGCCAUGCCUGCAGGUCGACUCUAGAAAACAUG,binding signal (log2 enrichment (interaction score)),[1],< -5.48
same,binding signal (log2 enrichment (interaction score)),[2],-1.25
GGCUAGAACUAGUGGAUCCCCCGGCGCCCGGCGGCUCGAGCCCGGGUAAGUUGUACAAGUCUGCAUGCCGCCGGGCGCCAUGCCUGCAGGUCGACUCUAGAAAACAUG,binding signal (log2 enrichment (interaction score)),[1],< -6.16
same,binding signal (log2 enrichment (interaction score)),[2],-1.63
same,binding signal (log2 enrichment (interaction score)),[3],-8.58
same,binding signal (log2 enrichment (interaction score)),[4],-2.86
GGCUAGAACUAGUGGAUCCCCCGGCGCCCGGCGGCUCGAGCCCGGGUAAGUUUGGAAAGUCUGCAUGCCGCCGGGCGCCAUGCCUGCAGGUCGACUCUAGAAAACAUG,binding signal (log2 enrichment (interaction score)),[1],-5.5
same,binding signal (log2 enrichment (interaction score)),[2],-0.98
GGCUAGAACUAGUGGAUCCCCCGGCGCCCGGCGGCUCGAGCCCGGGUAAGUUGCGGUUGUCUGCAUGCCGCCGGGCGCCAUGCCUGCAGGUCGACUCUAGAAAACAUG,binding signal (log2 enrichment (interaction score)),[1],-5.94
same,binding signal (log2 enrichment (interaction score)),[2],-1.38
GGCUAGAACUAGUGGAUCCCCCGGCGCCCGGCGGCUCGAGCCCGGGUAAGUUGCCUAAGUCUGCAUGCCGCCGGGCGCCAUGCCUGCAGGUCGACUCUAGAAAACAUG,binding signal (log2 enrichment (interaction score)),[1],< -5.65
same,binding signal (log2 enrichment (interaction score)),[5],-2.83
GGCUAGAACUAGUGGAUCCCCCGGCGCCCGGCGGCUCGAGCCCGGGUAAGUUUGGACAGUCUGCAUGCCGCCGGGCGCCAUGCCUGCAGGUCGACUCUAGAAAACAUG,binding signal (log2 enrichment (interaction score)),[1],-5.71
same,binding signal (log2 enrichment (interaction score)),[2],< -1.14
GGCUAGAACUAGUGGAUCCCCCGGCGCCCGGCGGCUCGAGCCCGGGUAAGUUGACAAUGUCUGCAUGCCGCCGGGCGCCAUGCCUGCAGGUCGACUCUAGAAAACAUG,binding signal (log2 enrichment (interaction score)),[1],-6.44
same,binding signal (log2 enrichment (interaction score)),[2],< -1.13
same,binding signal (log2 enrichment (interaction score)),[3],< -7.46
GGCUAGAACUAGUGGAUCCCCCGGCGCCCGGCGGCUCGAGCCCGGGUAAGGUUAUUGAGUCUGCAUGCCGCCGGGCGCCAUGCCUGCAGGUCGACUCUAGAAAACAUG,binding signal (log2 enrichment (interaction score)),[1],-4.97
same,binding signal (log2 enrichment (interaction score)),[5],-2.31
GGCUAGAACUAGUGGAUCCCCCGGCGCCCGGCGGCUCGAGCCCGGGUAAGUUUGCGUUGUCUGCAUGCCGCCGGGCGCCAUGCCUGCAGGUCGACUCUAGAAAACAUG,binding signal (log2 enrichment (interaction score)),[1],< -5.59
same,binding signal (log2 enrichment (interaction score)),[2],-1.87
GGCUAGAACUAGUGGAUCCCCCGGCGCCCGGCGGCUCGAGCCCGGGUAAGUGGCAGAAGUCUGCAUGCCGCCGGGCGCCAUGCCUGCAGGUCGACUCUAGAAAACAUG,binding signal (log2 enrichment (interaction score)),[1],-5.93
same,binding signal (log2 enrichment (interaction score)),[2],-1.32
same,binding signal (log2 enrichment (interaction score)),[3],< -7.22
GGCUAGAACUAGUGGAUCCCCCGGCGCCCGGCGGCUCGAGCCCGGGUAAGUCGAACACGUCUGCAUGCCGCCGGGCGCCAUGCCUGCAGGUCGACUCUAGAAAACAUG,binding signal (log2 enrichment (interaction score)),[1],-5.82
same,binding signal (log2 enrichment (interaction score)),[2],< -0.51
GGCUAGAACUAGUGGAUCCCCCGGCGCCCGGCGGCUCGAGCCCGGGUAAGUUAUAAUGGUCUGCAUGCCGCCGGGCGCCAUGCCUGCAGGUCGACUCUAGAAAACAUG,binding signal (log2 enrichment (interaction score)),[1],< -4.12
same,binding signal (log2 enrichment (interaction score)),[2],-1.46
GGCUAGAACUAGUGGAUCCCCCGGCGCCCGGCGGCUCGAGCCCGGGUAAGCUCAAUAUGUCUGCAUGCCGCCGGGCGCCAUGCCUGCAGGUCGACUCUAGAAAACAUG,binding signal (log2 enrichment (interaction score)),[1],-6.22
same,binding signal (log2 enrichment (interaction score)),[2],< -1.2
GGCUAGAACUAGUGGAUCCCCCGGCGCCCGGCGGCUCGAGCCCGGGUAAGUGCACACAGUCUGCAUGCCGCCGGGCGCCAUGCCUGCAGGUCGACUCUAGAAAACAUG,binding signal (log2 enrichment (interaction score)),[1],-7.04
same,binding signal (log2 enrichment (interaction score)),[2],-1.51
same,binding signal (log2 enrichment (interaction score)),[3],< -8.6

# In another format: results already given.
sequence | measurement | setting | value
GGCUAGAACUAGUGGAUCCCCCGGCGCCCGGCGGCUCGAGCCCGGGUAAGUGUAACACGUCUGCAUGCCGCCGGGCGCCAUGCCUGCAGGUCGACUCUAGAAAACAUG | binding signal (log2 enrichment (interaction score)) | [1] | < -6.6
GGCUAGAACUAGUGGAUCCCCCGGCGCCCGGCGGCUCGAGCCCGGGUAAGUUGACAAUGUCUGCAUGCCGCCGGGCGCCAUGCCUGCAGGUCGACUCUAGAAAACAUG | binding signal (log2 enrichment (interaction score)) | [1] | -6.44

# — paper PMC8384837
